Reference: PubChem BioAssay AID1117319 (Southern Research Institute, 2015)
About 1,500 (0.58%) of roughly 260,000 compounds were called active. The inconclusive results got no clear call from the source; some entries with a clear call stand among them for comparison.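 Rule for the calls: active = inhibition above a set limit at one or more doses, reproduced on every date tested; inconclusive = results disagree between test dates, or hit never tested in dose response; inactive = the rest.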

Chains of the proteins cited; added tags and fusions are not shown. Lines headed by an entry give the natural chain unless they say otherwise; changes in a name come on top.
UniProt P69720: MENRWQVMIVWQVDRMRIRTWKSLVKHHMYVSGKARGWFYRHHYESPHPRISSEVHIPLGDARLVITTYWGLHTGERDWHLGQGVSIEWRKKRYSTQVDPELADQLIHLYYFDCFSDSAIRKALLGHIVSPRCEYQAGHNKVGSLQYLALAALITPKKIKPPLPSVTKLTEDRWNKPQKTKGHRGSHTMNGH
UniProt P69721: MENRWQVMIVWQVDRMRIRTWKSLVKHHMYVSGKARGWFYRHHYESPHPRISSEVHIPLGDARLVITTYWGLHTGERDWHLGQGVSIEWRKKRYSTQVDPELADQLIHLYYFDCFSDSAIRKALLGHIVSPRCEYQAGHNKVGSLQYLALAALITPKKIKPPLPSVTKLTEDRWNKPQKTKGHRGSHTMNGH
UniProt P69722: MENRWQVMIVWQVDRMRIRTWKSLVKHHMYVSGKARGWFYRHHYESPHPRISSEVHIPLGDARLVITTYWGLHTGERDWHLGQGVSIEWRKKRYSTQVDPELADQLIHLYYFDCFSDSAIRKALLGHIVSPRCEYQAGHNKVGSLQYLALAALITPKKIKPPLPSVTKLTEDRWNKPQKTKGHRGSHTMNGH
UniProt P69723: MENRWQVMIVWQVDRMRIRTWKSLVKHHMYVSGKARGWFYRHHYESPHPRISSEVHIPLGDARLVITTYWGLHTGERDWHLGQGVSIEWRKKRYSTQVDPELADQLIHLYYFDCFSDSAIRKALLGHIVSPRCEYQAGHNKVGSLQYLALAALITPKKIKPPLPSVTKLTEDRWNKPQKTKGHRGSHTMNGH
UniProt Q9HC16: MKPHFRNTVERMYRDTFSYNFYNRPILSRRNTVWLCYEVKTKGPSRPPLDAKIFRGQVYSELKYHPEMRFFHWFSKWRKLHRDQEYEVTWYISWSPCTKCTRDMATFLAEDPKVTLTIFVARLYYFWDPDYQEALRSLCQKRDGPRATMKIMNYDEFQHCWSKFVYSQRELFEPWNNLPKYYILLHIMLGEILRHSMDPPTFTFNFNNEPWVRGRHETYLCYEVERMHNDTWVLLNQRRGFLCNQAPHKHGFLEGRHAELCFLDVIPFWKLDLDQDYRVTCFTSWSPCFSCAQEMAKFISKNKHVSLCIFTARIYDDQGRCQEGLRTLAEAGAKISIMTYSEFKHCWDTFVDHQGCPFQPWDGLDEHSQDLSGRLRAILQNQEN

The molecules below were run against Virion infectivity factor (Human immunodeficiency virus type 1 group M subtype B (isolate BH10)) + Virion infectivity factor (Human immunodeficiency virus type 1 group M subtype B (isolate BRU/LAI)) + Virion infectivity factor (Human immunodeficiency virus type 1 group M subtype B (isolate PCV12)) + Virion infectivity factor (Human immunodeficiency virus type 1 group M subtype B (isolate HXB2)) + DNA dC->dU-editing enzyme APOBEC-3G (Homo sapiens) (UniProt P69720+P69721+P69722+P69723+Q9HC16) (assay: inhibitors of Vif binding to APOBEC3G peptide, primary screen, biochemical, TR-FRET, GST-Vif 1-94, biotin-A3G peptide, dose response retest (AID 1117319;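 note: Vif residues 1-94 fused to GST binding biotinylated APOBEC3G peptide 110-148; 0% = full assay without inhibitor and 100% = GST in place of GST-Vif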)). Settings: active compounds read high.

Row | Structure (SMILES) | inhibition
1 | Cc1nn(CCC(=O)O)c(C)c1C | inconclusive: 40.6%
2 | N#C/C(=C\c1cc(Cl)ccc1O)C(=O)NC1CCCCC1 | inconclusive: 25.2%
3 | CCOC(=O)C1(S(=O)(=O)c2ccc(Cl)cc2)CCN(Cc2ccccc2)CC1 | inconclusive: 35.5%
4 | CC(C)CNS(=O)(=O)c1ccc(CCC(=O)NCc2ccco2)cc1 | inconclusive: 34.8%
5 | N#CC1=C(N)n2c(s/c(=C\c3cccs3)c2=O)=C(C#N)C1c1cccs1 (stereo not given) | inconclusive: 36%
6 | CCN1CCN(C(c2cccs2)C(C)NC(=O)c2ccccc2)CC1 (stereo not given) | inconclusive: 48.1%
7 | N#C/C(=C/c1ccc(F)cc1)C(N)=S | inactive: -0.15%
8 | Nc1nnc(-c2ccc(F)cc2)s1 | inconclusive: 15.8%
9 | CC1=C(C(=O)Nc2ccccc2)C(c2ccco2)NC(=S)N1 (stereo not given) | inactive: -0.58%
10 | CCC1CCC(C(=O)NC(C(=O)NCCCN2CCCCC2C)C(C)C)CC1 (stereo not given) | inconclusive: 35.2%
11 | OCCN1CCN(CC(O)COc2ccc(Cl)cc2)CC1 (stereo not given) | inconclusive: 35.8%
12 | COc1ccc(N2C(=O)CCC2=O)cc1 | inconclusive: 33.2%
13 | C/C(CCC(=O)OC[C@H]1O[C@H](C#Cc2ccccc2)C=C[C@@H]1Oc1ccc(C)cc1)=N\O[C@@H](C)CN1CCCCc2nc(C)c(C)cc21 | inconclusive: 40%
14 | CCN(CC)S(=O)(=O)c1ccc(OCC(=O)NC(=O)Cc2ccccc2)c([N+](=O)[O-])c1 | inactive: 1.51%
15 | Cc1cccn2cc(CCNS(=O)(=O)c3ccc([N+](=O)[O-])cc3)nc12 | inconclusive: 39.8%
16 | Cn1c(=O)[nH]c(NC2CCCCC2)c(N=O)c1=O | inconclusive: 40.8%
17 | COc1ccc(-c2cc(C(=O)N/N=C/c3ccc4c(c3)OCO4)c3ccccc3n2)c(OC)c1 | inactive: -3.1%
18 | COc1ccc(CCNC(=O)CN2CCOc3ccccc32)cc1OC | inactive: 2.79%
19 | CCOC(=O)C1(CCCc2ccccc2)CCN(CC(O)CO)CC1 (stereo not given) | inconclusive: 37.3%
20 | CN(C)S(=O)(=O)c1cccc(C(=O)Nc2cc(Cl)cc(Cl)c2)c1 | inconclusive: 37.2%
21 | Cc1cccc(NC2=C(NC(=O)c3ccccc3)C(=O)c3ccccc3C2=O)c1 | inconclusive: 45.1%
22 | CCN(CCCNC(=O)c1[nH]c(C)c(C(C)=O)c1C)c1cccc(C)c1 | inconclusive: 43.8%
23 | Cc1cc(C(=O)NP(=O)(N2CC(C)OC(C)C2)N2CC(C)OC(C)C2)c(C)n1C1CC1 (stereo not given) | inconclusive: 52.8%

Ordered by molecular weight (low to high): some entries from above.
Row | Structure (SMILES) | inhibition
4 | CC(C)CNS(=O)(=O)c1ccc(CCC(=O)NCc2ccco2)cc1 | inconclusive: 34.8%
21 | Cc1cccc(NC2=C(NC(=O)c3ccccc3)C(=O)c3ccccc3C2=O)c1 | inconclusive: 45.1%
17 | COc1ccc(-c2cc(C(=O)N/N=C/c3ccc4c(c3)OCO4)c3ccccc3n2)c(OC)c1 | inactive: -3.1%

Continuation.

Row | Structure (SMILES) | inhibition
24 | Cc1nnc(SCC(=O)c2ccc(Br)cc2)s1 | inconclusive: 45.6%
25 | Cc1ccc(C(=O)Oc2ccc(N3C(=O)CCC3=O)c(C)c2)cc1 | inconclusive: 34.6%
26 | c1ccc2c(c1)nc(N1CCCCC1)c1ccccc12 | inconclusive: 48%
27 | CCCCOc1c(Cl)cc(CNC(C)(C)CO)cc1OCC | inconclusive: 25.3%
28 | COc1ccc(CCNC(=O)CCCn2c(=O)c3cccn3c3cccnc32)c(OC)c1OC | inconclusive: 38.3%
29 | CC(O)CC(C(=O)NNc1ccccc1)C(=O)NNc1ccccc1 (stereo not given) | inconclusive: 34.3%
30 | CCOC(=O)COc1ccc(Br)cc1/C=C\c1[nH]c(=O)[nH]c(=O)c1[N+](=O)[O-] | inconclusive: 51.9%
31 | COc1ccc(C2CC(=O)N(c3ccccc3)C3=C2C(=O)CCC3)cc1 (stereo not given) | inconclusive: 44.5%
32 | O=S(=O)(c1ccccc1)N1CCN(c2nnnn2-c2ccccc2)CC1 | inconclusive: 39.8%
33 | COc1ccc(NS(=O)(=O)c2ccc(N3CCOCC3)c(NC(=O)c3ccc(OC)cc3)c2)cc1 | inconclusive: 43.3%
34 | COC(=O)c1ccc(N2CCCCC2)c(N)c1 | inactive: 24.1%
35 | Cc1ccc(N2C(=O)CCSC23C(=O)Nc2ccccc23)cc1 (stereo not given) | inconclusive: 33.1%
36 | COc1ccc(N=C2S/C(=C\c3ccco3)C(=O)N2CC(C)C)cc1 | inconclusive: 37.8%
37 | Cc1[nH][nH]c(=O)c1C(c1c(C)[nH][nH]c1=O)c1cn(Cc2cccc3ccccc23)c2ccccc12 | inconclusive: 36.8%
38 | CNS(=O)(=O)c1ccc2nc(NC(=O)/C=C/c3ccco3)sc2c1 | inconclusive: 35.4%
39 | COC(=O)c1cc(C)ccc1OCc1ccc([N+](=O)[O-])cc1 | inconclusive: 60.3%
40 | O=C(CN1C(=O)c2ccccc2C1=O)N1CCN=C1c1ccccc1 | inconclusive: 37%
41 | Clc1ccc2c(c1)CNc1c(ncnc1N1CCOCC1)O2 | inconclusive: 62.8%
42 | CC(=O)c1cccc(N=C2C(=O)Nc3ccccc32)c1 | inconclusive: 35.7%
43 | CCCCC(NC(C)=O)c1nc2ccccc2n1CCC (stereo not given) | inconclusive: 50.3%
44 | COc1ccccc1NS(=O)(=O)c1cc([N+](=O)[O-])ccc1N/N=C/c1c(C)[nH]c2ccccc12 | inconclusive: 61.6%
45 | COCCN(CCOC)Cc1c(O)ccc2c3c(c(=O)oc12)CCC3 | inconclusive: 33.6%
